# According to patent US7335671B2, “Arylcycloalkyl-substituted alkanoic acid derivatives, processes for their preparation and their use as pharmaceuticals” (Sanofi-Aventis Deutschland GmbH, priority 2003, dated 2008):
# Some results were stated once for a whole list of compounds, not compound by compound.
# Molecular target: T1, PPARalpha (Homo sapiens, UniProt Q07869)
# T1 construct: human PPARalpha receptor (amino acids S167-Y468); expressed in transfected cells; host or cells: HEK (human embryo kidney) cells, stably transfected; pcDNA3 vector, CMV promoter
# T1 sequence (Q07869 167-468): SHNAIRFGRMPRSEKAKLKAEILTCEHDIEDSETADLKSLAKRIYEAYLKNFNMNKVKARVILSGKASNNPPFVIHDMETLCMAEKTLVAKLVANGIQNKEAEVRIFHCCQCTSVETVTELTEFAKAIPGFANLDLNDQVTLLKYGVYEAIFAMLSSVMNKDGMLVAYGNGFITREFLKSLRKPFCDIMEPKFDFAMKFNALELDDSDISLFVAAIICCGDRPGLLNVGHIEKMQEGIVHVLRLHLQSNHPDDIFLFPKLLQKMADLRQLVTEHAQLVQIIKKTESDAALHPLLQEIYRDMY
# Experiment: Cellular PPARalpha assay (stably transfected HEK luciferase reporter cell line)
# Assay type: cell-based
# Settings: units printed in the value: nM to μM; read-out: PPARalpha EC50 values (range over the examples)
row,Structure (SMILES),EC50 [nM]
1,"Cc1cccc(-c2nc(COC[C@H]3CCC[C@@H](OC[C@@H](OCc4ccc(C(F)(F)F)cc4)C(=O)O)C3)c(C)o2)c1 [Example 90, (R)-3-[(1R,3S)-3-(5-Methyl-2-m-tolyloxazol-4-ylmethoxymethyl)cyclohexyloxy]-2-(4-trifluoromethylbenzyloxy)propionic acid]",≥ 0.6
2,CCCC(CCO[C@@H]1CCC[C@H](OCc2nc(-c3ccc(F)cc3)oc2C)C1)C(=O)O (stereo partly shown) [Example 2],≥ 0.6
3,"CCC#CCOC(CO[C@@H]1CCC[C@H](OCc2nc(-c3cccc(C)c3)oc2C)C1)C(=O)O (stereo partly drawn) [Example 23, 3-[(1R,3S)-3-(5-Methyl-2-m-tolyloxazol4-ylmethoxy)cyclohexyloxy]-2-(2-pentynyl-oxy)propionic acid]",≥ 0.6
4,"Cc1cccc(-c2nc(CO[C@H]3CCC[C@@H](OCC(OCc4ccc(Cl)s4)C(=O)O)C3)c(C)o2)c1 (stereo partly drawn) [Example 20, 3-[(1R,3S)-3-(5-Methyl-2-m-tolyloxazol-4-ylmethoxy)cyclohexyloxy]-2-(2-chlorothien-5-ylmethoxy)propionic acid]",≥ 0.6
5,"COc1cccc(COC(CO[C@@H]2CCC[C@H](OCc3nc(-c4cccc(C)c4)oc3C)C2)C(=O)O)c1 (stereo partly drawn) [Example 15, 3-[(1R,3S)-3-(5-Methyl-2-m-tolyloxazol-4-ylmethoxy)cyclohexyloxy]-2-(3-methoxy-benzyloxy)propanoic acid]",≥ 0.6
6,"COC(CO[C@@H]1CCC[C@H](OCc2nc(-c3cccc(C)c3)oc2C)C1)C(=O)O (stereo partly drawn) [Example 12, 3-[(1R,3S)-3-(5-Methyl-2-m-tolyloxazol4-ylmethoxy)cyclohexyloxy]-2-methoxypropionic acid]",≥ 0.6
7,"CCCOC(CO[C@@H]1CCC[C@H](OCc2nc(-c3cccc(C)c3)oc2C)C1)C(=O)O (stereo partly drawn) [Example 43, 3-[(1R,3S)-3-(5-Methyl-2-(3-tolyl)oxazol-4-ylmethoxy)cyclohexyloxy]-2-propoxy-propionic acid]",≥ 0.6
8,"CCCOC(CO[C@@H]1CCC[C@H](OCc2nc(-c3ccc(C(C)C)cc3)oc2CC)C1)C(=O)O (stereo partly drawn) [Example 69, 3-{(1R,3S)-3-[5-Ethyl-2-(4-isopropylphenyl)oxazol-4-ylmethoxy]cyclohexyloxy}-2-propoxypropionic acid]",≥ 0.6
9,"Cc1cccc(-c2nc(CO[C@H]3CCC[C@@H](OC[C@H](OCc4ccc(C(F)(F)F)cc4)C(=O)O)C3)c(C)o2)c1 [Example 11, 2R-(1R′,3S′)-3-[3-(5-Methyl-2-m-tolyloxazol-4-ylmethoxy)cyclohexyloxy]-2-(4-trifluoromethylbenzyloxy)propanoic acid]",≥ 0.6
10,"CCOC(CO[C@@H]1CCC[C@H](OCc2nc(-c3ccc(-c4ccccc4)cc3)oc2C)C1)C(=O)O (stereo partly drawn) [Example 64, 2-Ethoxy-3-{(1R,3S)-3-[5-methyl-2-(4-biphenyl)oxazol-4-ylmethoxy]cyclohexyl-oxy}propionic acid]",≥ 0.6
11,"CCCO[C@@H](CO[C@@H]1CCC[C@H](OCc2nc(-c3cccc(C)c3)oc2C)C1)C(=O)O [Example 10, 2R-(1R′,3S′)-2-(2-Propoxy)-3-[3-(5-methyl-2-m-tolyloxazol-4-ylmethoxy)-cyclohexyloxy]propionic acid]",≥ 0.6
12,"CCOC(CO[C@@H]1CCC[C@H](OCc2nc(-c3ccc(C(C)C)cc3)oc2CC)C1)C(=O)O (stereo partly drawn) [Example 66, 2-Ethoxy-3-[(1R,3S)-3-(5-ethyl-2-(4-isopropylphenyl)oxazol-4-ylmethoxy)cyclo-hexyloxy]propionic acid]",≥ 0.6
13,"COC(CO[C@@H]1CCC[C@H](OCc2nc(-c3ccc(-c4ccccc4)cc3)oc2C)C1)C(=O)O (stereo partly drawn) [Example 37, 2-Methoxy-3-{(1R,3S)-3-[5-methyl-2-(4-biphenyl)oxazol-4-ylmethoxy]-cyclohexyl-oxy}propionic acid]",≥ 0.6
14,"CCOC(CO[C@@H]1CCC[C@H](OCc2nc(-c3ccc(OC(F)(F)F)cc3)oc2C)C1)C(=O)O (stereo partly drawn) [Example 60, 2-Ethoxy-3-{(1R,3S)-3-[5-methyl-2-(4-trifluoromethoxyphenyl)oxazol-4-ylmethoxy]-cyclohexyloxy}propionic acid]",≥ 0.6
15,"Cc1cccc(-c2nc(CO[C@H]3CCC[C@@H](OCC(Cc4cccc(C(F)(F)F)c4)C(=O)O)C3)c(C)o2)c1 (stereo partly drawn) [Example 91, 2-[(1R,3S)-3-(5-Methyl-2-m-tolyloxazol4-ylmethoxy)cyclohexyloxymethyl]-3-(3-trifluoromethylphenyl)propionic acid]",≥ 0.6
16,"CCCOC(CO[C@@H]1CCC[C@H](OCc2nc(-c3cccc(OC)c3)oc2C)C1)C(=O)O (stereo partly drawn) [Example 45, 3-{(1R,3S)-3-[5-Methyl-2-(3-methoxyphenyl)oxazol-4-ylmethoxy]cyclohexyloxy}-2-propoxypropionic acid]",≥ 0.6
